Laboratory results: PubChem BioAssay AID1508588 (Peter MacCallum Cancer Centre, 2020)

Purpose: 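Genome-wide search for knock-downs that heighten vemurafenib action in melanoma cells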 (primary screen)
Cell system: human WM266.4 melanoma cells (BRAF V600 mutant)
Knock-down reagent: siRNA pool against human genes, 40 nM
Time to read-out: 96 h from transfection to read-out
Treatment: vemurafenib 300 nM (about IC25), added 48 h after transfection, for 48 h; comparison arm got DMSO vehicle only
Read-out: 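Cell gain (DAPI nuclei at end minus before drug, mean of two replicates) and medium lactate by absorbance per cell, both as ratio to non-targeting siRNA, also grouped into fold-change classes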
Direction: cell gain with vemurafenib: higher = more cell gain than with non-targeting siRNA; lactate per cell with vemurafenib: higher = more lactate made per cell
Rule for the call: 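a knock-down counts as enhancing when its fold-change classes with vehicle and with vemurafenib, taken together, show a stronger drug effect on cell gain or lactate per cell; exact class pairs not stated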
Meaning of the calls: active = enhances vemurafenib effect; inactive = no enhancement seen
Shown is one part, drawn at random, of about 18,000 reagents tested. Over the whole deposit, 790 (4.4%) are marked active. 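Calls rest on a combination of fold-change classes in drug and vehicle arms, not all shown here.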 The numbers tell different reagents against one gene apart.

TIAM1 (TIAM Rac1 associated GEF 1) showed cell gain with vemurafenib 0.75; lactate per cell with vemurafenib 0.76; inactive.
For OR2L2 (olfactory receptor family 2 subfamily L member 2) the deposit lists cell gain with vemurafenib 0; lactate per cell with vemurafenib 0.91; inactive.
With knock-down of FCRL1 (Fc receptor like 1), the record shows cell gain with vemurafenib 0.6; lactate per cell with vemurafenib 0.27; inactive.
With knock-down of VSIG1 (V-set and immunoglobulin domain containing 1), the screen gave cell gain with vemurafenib 0.69; lactate per cell with vemurafenib 0.8; inactive.
For SLC52A3, the entry reads cell gain with vemurafenib 0.7; lactate per cell with vemurafenib 1.4; inactive.
MGARP (mitochondria localized glutamic acid rich protein) gave cell gain with vemurafenib 1.16; lactate per cell with vemurafenib 0.66; inactive.
For BBS9 (Bardet-Biedl syndrome 9), the entry reads cell gain with vemurafenib 0.77; lactate per cell with vemurafenib 0.73; inactive.
For TPGS1 (tubulin polyglutamylase complex subunit 1) the deposit lists cell gain with vemurafenib 0; lactate per cell with vemurafenib 1.57; inactive.
PPP2CA (protein phosphatase 2 catalytic subunit alpha) scored cell gain with vemurafenib 0.41; lactate per cell with vemurafenib 1.46; inactive.
For RPRM (reprimo, TP53 dependent G2 arrest mediator homolog) the deposit lists cell gain with vemurafenib 1.17; lactate per cell with vemurafenib 1.15; inactive.
After knock-down of SLC9A5, the screen gave cell gain with vemurafenib 0.69; lactate per cell with vemurafenib 1.79; inactive.
SFTPA1 (surfactant protein A1) #1 gave cell gain with vemurafenib 0.13; lactate per cell with vemurafenib 1.61; inactive.
For SFTPA1 (surfactant protein A1) #2, the values are cell gain with vemurafenib 0.2; lactate per cell with vemurafenib 0.84; inactive.
RGS7 (regulator of G protein signaling 7) gave cell gain with vemurafenib 1.34; lactate per cell with vemurafenib 0.76; inactive.
Against GYS1 (glycogen synthase 1) the deposit lists cell gain with vemurafenib 0.66; lactate per cell with vemurafenib 1.16; inactive.
With knock-down of CDC42SE1 (CDC42 small effector 1), the screen gave cell gain with vemurafenib 0.76; lactate per cell with vemurafenib 0.77; inactive.
Silencing of LOC642219 (retired record) gave: cell gain with vemurafenib 1.03; lactate per cell with vemurafenib 0.72; inactive.
Knock-down of ACP1 (acid phosphatase 1) gave: cell gain with vemurafenib 0.24; lactate per cell with vemurafenib 1.02; inactive.
Knock-down of GLRA1 (glycine receptor alpha 1) gave: cell gain with vemurafenib 0.36; lactate per cell with vemurafenib 0.41; active.
FOXP1 (forkhead box P1) scored cell gain with vemurafenib 0.33; lactate per cell with vemurafenib 1.17; inactive.
Knock-down of SMCO3 (single-pass membrane protein with coiled-coil domains 3) gave: cell gain with vemurafenib 1.09; lactate per cell with vemurafenib 0.86; inactive.
MED13 (mediator complex subunit 13) scored cell gain with vemurafenib 0.7; lactate per cell with vemurafenib 0.7; inactive.
After knock-down of GABARAPL1 (GABA type A receptor associated protein like 1) the results were cell gain with vemurafenib 0.61; lactate per cell with vemurafenib 1.09; inactive.
With knock-down of SRRD (SRR1 domain containing) the results were cell gain with vemurafenib 0.69; lactate per cell with vemurafenib 1.12; inactive.
With knock-down of OR7A10 (olfactory receptor family 7 subfamily A member 10) the results were cell gain with vemurafenib 0.95; lactate per cell with vemurafenib 0.26; inactive.
DEFB104A (defensin beta 104A) showed cell gain with vemurafenib 0.54; lactate per cell with vemurafenib 0.9; inactive.
After knock-down of HSF5 (heat shock transcription factor 5) the results were cell gain with vemurafenib 0.79; lactate per cell with vemurafenib 0.66; inactive.
